Laboratory results as given in the supplement of paper PMC7125110.
± gives the standard error. The uncertainty is large for many entries.

B1: glmS ribozyme (parent)
chain: AUAAAAGCGCCAGAACUACAGAAAUGUAGUUGACGAGGAGGAGGUUUAUCGAAUUUUCGGCGGAUGCCUCCAAA

Variants of: B1
Assay: kcat; higher = faster cleavage; RNA array
Conditions: with glucosamine-6-phosphate
Summary of the method: (§1)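 A hybridised Cy3 probe tracked barcoded ribozyme variants, transcribed in situ by E. coli RNA polymerase on sequenced MiSeq chips, at 37 °C. The variants received 40 μM to 10 mM glucosamine-6-phosphate in HEPES/KCl/Mg(OAc)2 buffer. kobs came from decay fits and kcat and KM from weighted Michaelis–Menten fits.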

| Variant | kcat [s⁻¹] |
| --- | --- |
| A15C A39G | 0.0139 ± 0.008 |
| A12C C71A | 0.00295 ± 0.0015 |
| A6U A14C | 0.000106 ± 7.1e-05 |
| A6U A14G | 0.000657 ± 7.8e-05 |
| A15C A33C | 6.42e-05 ± 3.3e-06 |
| C11A A15G | 0.000255 ± 2.9e-05 |
| A12U A14G | 0.0488 ± 0.026 |
| A12U A14C | 0.00505 ± 0.0013 |
| G7A G38A | < 1e-05 |
| A12G A14G U57A C68A U69G | 5.39e-05 ± 3.1e-05 |
| A14U G41C C70G | 0.136 ± 0.11 |
| G7A U54A | 9.7e-05 ± 5.3e-05 |
| A14U U47C C58G C68G | 5.66e-05 ± 3.9e-05 |
| C11U C68A C71G | 5.97e-05 ± 2.3e-05 |
| A14G C68U | 0.00837 ± 0.0047 |
| A15C U30C U31G U69G | 3.56e-05 ± 2.8e-05 |
| A6U A12G G66U | 4.75e-05 ± 3.2e-05 |
| G13C G59A | 1.57e-05 ± 1.5e-05 |
| G13A U31G | 0.000328 ± 7.1e-05 |
| A15G A42G A53G | 0.0129 ± 0.0071 |

Quoted at random: 3 records from the list

| Variant | kcat [s⁻¹] |
| --- | --- |
| A12U A14C | 0.00505 ± 0.0013 |
| A14U U47C C58G C68G | 5.66e-05 ± 3.9e-05 |
| A12C C71A | 0.00295 ± 0.0015 |

(next part)

| Variant | kcat [s⁻¹] |
| --- | --- |
| C10U U55A C70U | 1.94e-05 ± 1.1e-05 |
| A14U U65A | 0.0015 ± 0.00017 |
| A14U U65C | 8.95e-05 ± 1.3e-05 |
| A12G U55A | 0.0021 ± 0.0015 |
| A12C G40A | 0.00343 ± 0.0021 |
| G13U C67U C70U | 3.79e-05 ± 3e-05 |
| A12U U54A U69A | 0.000369 ± 0.00018 |
| C10A C11A G51A | < 1e-05 |
| G7C G38U C70G | 1.32e-05 ± 1e-05 |
| A14G U56G | 0.0818 ± 0.014 |
| A14G G29A | 0.00517 ± 0.0029 |
| A15G A42U | 0.000248 ± 4.1e-05 |
| C10A U56C | < 1e-05 |
| A6C G29C C58G C71A | 5.61e-05 ± 2.9e-05 |
| A15C G38A U57G | < 1e-05 |
| A12G G38U A39U | < 1e-05 |
| A12U U55A | 0.0609 ± 0.031 |
| A15G C58A C70U | 0.000287 ± 0.00015 |
| C11A U49G | < 1e-05 |
| C10A A14U G59U C71G | 1.42e-05 ± 3.8e-06 |

| Variant | kcat [s⁻¹] |
| --- | --- |
| A12U C16U | 0.124 ± 0.11 |
| A12U C16G | 0.0162 ± 0.013 |
| A14U A53U C71U | 0.00782 ± 0.0074 |
| G13A C67U | 0.000696 ± 0.00054 |
| C11A A12U | 0.00147 ± 0.00076 |
| A6U C16G | 5.15e-05 ± 3.5e-06 |
| C11U A12C C70G | 4.6e-05 ± 2.8e-05 |
| C10A U31A C58G C67A | 5.35e-05 ± 3.1e-05 |
| A12G U31A | 0.000422 ± 0.00026 |
| A15C U57C | 0.000166 ± 0.00014 |
| A15G C16G C71G | 0.000103 ± 1.4e-05 |
| A15C U56G | 0.00386 ± 0.0026 |
| G13C G29C | 0.000144 ± 7.3e-05 |
| A12G U47C | 0.000813 ± 9.1e-05 |
| A14C C70A | 0.000106 ± 1.1e-05 |
| A6C U55A | 9.15e-05 ± 2.5e-05 |
| G9A C11G G35U G37U C61U | < 1e-05 |
| A12C U54C | 0.0233 ± 0.015 |
| A14U C34A A48G C68G C71A | 0.000597 ± 0.00036 |
| G13A C68G C71G | 5.26e-05 ± 3.4e-05 |

For reference, some entries already given.

| Variant | kcat [s⁻¹] |
| --- | --- |
| A15G C58A C70U | 0.000287 ± 0.00015 |
| C11A U49G | < 1e-05 |
| C10A A14U G59U C71G | 1.42e-05 ± 3.8e-06 |
| A12U C16U | 0.124 ± 0.11 |

Variants of: B1
Assay: KM; higher = weaker cofactor use; RNA array
Conditions: with glucosamine-6-phosphate
Summary of the method: as §1

| Variant | KM [µM] |
| --- | --- |
| A15C A39G | 2880 ± 2600 |
| A12C C71A | 2670 ± 2000 |
| A6U A14G | 2280 ± 480 |
| A15C A33C | 1900 ± 440 |
| C11A A15G | 1280 ± 310 |
| A12U A14G | 580 ± 370 |
| A12U A14C | 1630 ± 560 |
| A14U G41C C70G | 9200 ± 8700 |
| G7A U54A | 23900 ± 18000 |
| A14G C68U | 1840 ± 1300 |
| G13A U31G | 11300 ± 3900 |
| A15G A42G A53G | 276 ± 200 |
| A14U U65A | 4460 ± 760 |
| A14U U65C | 698 ± 460 |
| A12C G40A | 1630 ± 1300 |
| A14G U56G | 1560 ± 320 |
| A14G G29A | 459 ± 380 |

| Variant | KM [µM] |
| --- | --- |
| A15G A42U | 1410 ± 570 |
| A12U U55A | 1150 ± 690 |
| A15G C58A C70U | 1260 ± 1100 |
| A12U C16U | 3010 ± 2900 |
| G13A C67U | 10700 ± 10000 |
| C11A A12U | 3070 ± 2500 |
| A6U C16G | 3290 ± 720 |
| A12G U31A | 9480 ± 9000 |
| A15G C16G C71G | 354 ± 280 |
| A15C U56G | 6870 ± 6000 |
| G13C G29C | 5440 ± 5000 |
| A12G U47C | 3820 ± 720 |
| A14C C70A | 413 ± 170 |
| A6C U55A | 1960 ± 1800 |
| A12C U54C | 1870 ± 1600 |
| A14U C34A A48G C68G C71A | 16400 ± 15000 |

Variants of: B1
Assay: self-cleavage kobs at 2500 uM GlcN6P; higher = faster cleavage; RNA array
Conditions: with glucosamine-6-phosphate
Summary of the method: as §1

| Variant | self-cleavage kobs at 2500 uM GlcN6P [s⁻¹] |
| --- | --- |
| A6U A14C | 1.35e-05 ± 9.7e-06 |
| A12U A14G | 0.0625 ± 0.037 |
| C11U C68A C71G | 5.45e-05 ± 3.3e-05 |
| A15C U30C U31G U69G | 3.5e-05 ± 2.2e-05 |
| A6U A12G G66U | 0.000799 ± 0.00064 |
| A15G A42G A53G | 0.0159 ± 0.015 |
| C10U U55A C70U | 2.39e-05 ± 2.2e-05 |
| A6C G29C C58G C71A | 3.95e-05 ± 3.6e-05 |
| C11U A12C C70G | 8.9e-05 ± 5.3e-05 |
| A15C U57C | 1.75e-05 ± 1e-05 |

Variants of: B1
Assay: self-cleavage kobs at 40 uM GlcN6P; higher = faster cleavage; RNA array
Conditions: with glucosamine-6-phosphate
Summary of the method: as §1

| Variant | self-cleavage kobs at 40 uM GlcN6P [s⁻¹] |
| --- | --- |
| A12G A14G U57A C68A U69G | 4.24e-05 ± 2.2e-05 |
| C11U C68A C71G | 3.12e-05 ± 2.3e-05 |
| A14U U65A | 1.42e-05 ± 1.3e-05 |

Variants of: B1
Assay: self-cleavage kobs at 10000 uM GlcN6P; higher = faster cleavage; RNA array
Conditions: with glucosamine-6-phosphate
Summary of the method: as §1

| Variant | self-cleavage kobs at 10000 uM GlcN6P [s⁻¹] |
| --- | --- |
| A12G A14G U57A C68A U69G | 3.77e-05 ± 2e-05 |
| G7A U54A | 2.87e-05 ± 1.9e-05 |
| C11U C68A C71G | 3.58e-05 ± 1.9e-05 |
| A15C U30C U31G U69G | 1.94e-05 ± 1.7e-05 |
| A15G A42G A53G | 0.0698 ± 0.038 |
| C11U A12C C70G | 3.06e-05 ± 2e-05 |
| G13A C68G C71G | 2.81e-05 ± 1.6e-05 |

Variants of: B1
Assay: self-cleavage kobs at 640 uM GlcN6P; higher = faster cleavage; RNA array
Conditions: with glucosamine-6-phosphate
Summary of the method: as §1

| Variant | self-cleavage kobs at 640 uM GlcN6P [s⁻¹] |
| --- | --- |
| A15C U57C | 2.06e-05 ± 2e-05 |
| A15G C16G C71G | 5.94e-05 ± 3.2e-05 |
